Assay results published in publication PMC4846377.
For part of these data: The comparison behind a weaker result is the experiment's own reference, which may not be listed here. For part of these data: The exact form of at least one protein or probe is not confirmed. For part of these data: At least one verdict was read from the data and is not stated in words by the source.

How the values were obtained:
Assay in all cases: EMSA
Conditions in all cases: no divalent metal added; EMSA: 100 nM DNA, 31.5-2000 nM RecJ, 50 mM Tris pH 7.5, 60 mM KCl, 0.1 mg/ml BSA, 1 mM DTT, 5% glycerol, 30 C, 20 min; recombinant protein; residues 1-705; protein details: His-MBP tag removed by TEV; label: 3' 6-FAM; single-stranded DNA
[1] = biological target: drRecJ F269A (Deinococcus radiodurans) (UniProt D0EM60)
[2] = biological target: drRecJ K353A (Deinococcus radiodurans) (UniProt D0EM60)
[3] = biological target: drRecJ R280A (Deinococcus radiodurans) (UniProt D0EM60)
[4] = biological target: drRecJ R313A/R314A (Deinococcus radiodurans) (UniProt D0EM60)
[5] = biological target: drRecJ V224A (Deinococcus radiodurans) (UniProt D0EM60)
[6] = biological target: drRecJ wild-type (Deinococcus radiodurans) (UniProt D0EM60)

AAAAAAAAAAAAAAAAAAAA [KY08 poly(dA)20]
binding result [1]: binds more weakly
binding result [2]: binds more weakly
binding result [3]: binds more weakly
binding result [4]: binds more weakly
binding result [5]: binds more weakly
binding result [6]: binds
